According to the supplement of paper PMC10849652:
This is one part of the list.

Protein sequences, listed by entry. Tags and fused reporters are not part of them. Lines headed by an entry give the natural chain unless they say otherwise; changes in a name come on top.
UniProt Q96IV0: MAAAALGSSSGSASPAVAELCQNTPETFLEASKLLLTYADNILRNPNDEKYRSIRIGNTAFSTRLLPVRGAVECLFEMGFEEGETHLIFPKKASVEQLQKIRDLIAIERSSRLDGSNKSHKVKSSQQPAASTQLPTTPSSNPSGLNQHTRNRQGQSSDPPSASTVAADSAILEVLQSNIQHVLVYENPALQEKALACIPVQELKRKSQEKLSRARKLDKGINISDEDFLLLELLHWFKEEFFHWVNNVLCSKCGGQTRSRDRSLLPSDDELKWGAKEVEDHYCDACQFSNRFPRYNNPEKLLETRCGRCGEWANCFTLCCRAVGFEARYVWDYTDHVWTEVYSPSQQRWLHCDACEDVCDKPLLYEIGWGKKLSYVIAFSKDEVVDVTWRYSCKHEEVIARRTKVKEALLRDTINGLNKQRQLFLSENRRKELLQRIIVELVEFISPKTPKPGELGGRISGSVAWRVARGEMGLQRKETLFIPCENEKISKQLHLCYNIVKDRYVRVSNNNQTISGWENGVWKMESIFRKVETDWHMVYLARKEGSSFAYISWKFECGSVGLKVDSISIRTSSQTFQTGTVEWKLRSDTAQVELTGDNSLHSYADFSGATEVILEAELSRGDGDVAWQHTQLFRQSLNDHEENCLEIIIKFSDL
UniProt Q9BYT8, whole entry, looked up: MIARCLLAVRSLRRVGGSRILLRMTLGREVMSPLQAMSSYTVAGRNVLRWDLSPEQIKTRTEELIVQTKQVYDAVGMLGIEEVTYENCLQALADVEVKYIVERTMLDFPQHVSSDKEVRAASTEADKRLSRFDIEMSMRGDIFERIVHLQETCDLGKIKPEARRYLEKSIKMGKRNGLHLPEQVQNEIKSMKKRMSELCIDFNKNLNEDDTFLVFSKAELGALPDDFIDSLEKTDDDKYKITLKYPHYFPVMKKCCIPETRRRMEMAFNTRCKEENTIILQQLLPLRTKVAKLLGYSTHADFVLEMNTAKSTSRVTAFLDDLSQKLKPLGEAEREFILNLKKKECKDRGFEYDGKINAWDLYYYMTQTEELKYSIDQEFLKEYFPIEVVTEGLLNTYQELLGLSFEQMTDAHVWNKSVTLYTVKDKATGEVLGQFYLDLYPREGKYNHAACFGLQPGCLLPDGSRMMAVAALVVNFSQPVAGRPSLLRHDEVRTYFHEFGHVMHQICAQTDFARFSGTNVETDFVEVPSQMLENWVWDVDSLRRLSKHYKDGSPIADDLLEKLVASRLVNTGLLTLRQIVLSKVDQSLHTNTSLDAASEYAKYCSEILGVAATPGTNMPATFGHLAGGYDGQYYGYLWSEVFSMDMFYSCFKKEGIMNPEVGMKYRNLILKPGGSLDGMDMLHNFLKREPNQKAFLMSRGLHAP
UniProt Q9BS92: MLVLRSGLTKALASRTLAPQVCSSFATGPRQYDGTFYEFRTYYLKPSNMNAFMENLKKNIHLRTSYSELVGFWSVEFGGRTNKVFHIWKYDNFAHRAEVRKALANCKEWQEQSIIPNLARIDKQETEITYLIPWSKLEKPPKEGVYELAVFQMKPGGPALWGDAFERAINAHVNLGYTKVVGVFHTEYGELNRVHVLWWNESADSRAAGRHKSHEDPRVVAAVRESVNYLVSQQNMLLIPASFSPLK
UniProt O00567: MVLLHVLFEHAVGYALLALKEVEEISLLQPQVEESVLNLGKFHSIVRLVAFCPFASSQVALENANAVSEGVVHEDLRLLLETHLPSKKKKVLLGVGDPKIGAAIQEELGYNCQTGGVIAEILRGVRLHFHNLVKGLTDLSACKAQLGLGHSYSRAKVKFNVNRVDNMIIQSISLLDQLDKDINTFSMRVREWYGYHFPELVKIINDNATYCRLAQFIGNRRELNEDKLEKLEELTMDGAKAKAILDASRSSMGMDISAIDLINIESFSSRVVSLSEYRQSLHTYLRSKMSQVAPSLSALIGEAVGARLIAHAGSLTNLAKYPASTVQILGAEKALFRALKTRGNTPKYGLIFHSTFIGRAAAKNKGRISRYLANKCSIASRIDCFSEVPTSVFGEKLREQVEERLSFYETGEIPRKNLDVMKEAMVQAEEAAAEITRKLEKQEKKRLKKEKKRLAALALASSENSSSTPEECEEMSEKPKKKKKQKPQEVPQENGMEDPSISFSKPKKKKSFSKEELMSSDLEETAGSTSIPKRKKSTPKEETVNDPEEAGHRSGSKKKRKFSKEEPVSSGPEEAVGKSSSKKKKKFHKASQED
UniProt Q8IXH7, whole entry, looked up: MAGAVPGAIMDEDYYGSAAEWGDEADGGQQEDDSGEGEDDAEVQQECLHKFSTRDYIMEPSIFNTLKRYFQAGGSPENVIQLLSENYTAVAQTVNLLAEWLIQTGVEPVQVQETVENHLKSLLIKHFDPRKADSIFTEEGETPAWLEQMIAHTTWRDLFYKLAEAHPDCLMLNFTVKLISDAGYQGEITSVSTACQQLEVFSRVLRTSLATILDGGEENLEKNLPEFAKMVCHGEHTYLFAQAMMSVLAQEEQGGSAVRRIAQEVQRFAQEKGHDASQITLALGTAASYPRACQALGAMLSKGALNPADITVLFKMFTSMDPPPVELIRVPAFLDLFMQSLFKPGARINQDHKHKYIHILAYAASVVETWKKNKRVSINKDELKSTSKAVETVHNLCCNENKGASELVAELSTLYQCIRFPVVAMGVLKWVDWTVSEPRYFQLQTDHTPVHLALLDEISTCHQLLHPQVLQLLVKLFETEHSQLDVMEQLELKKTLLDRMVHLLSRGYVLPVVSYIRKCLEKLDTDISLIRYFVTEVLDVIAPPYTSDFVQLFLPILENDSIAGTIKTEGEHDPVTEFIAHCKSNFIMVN
UniProt Q96L73: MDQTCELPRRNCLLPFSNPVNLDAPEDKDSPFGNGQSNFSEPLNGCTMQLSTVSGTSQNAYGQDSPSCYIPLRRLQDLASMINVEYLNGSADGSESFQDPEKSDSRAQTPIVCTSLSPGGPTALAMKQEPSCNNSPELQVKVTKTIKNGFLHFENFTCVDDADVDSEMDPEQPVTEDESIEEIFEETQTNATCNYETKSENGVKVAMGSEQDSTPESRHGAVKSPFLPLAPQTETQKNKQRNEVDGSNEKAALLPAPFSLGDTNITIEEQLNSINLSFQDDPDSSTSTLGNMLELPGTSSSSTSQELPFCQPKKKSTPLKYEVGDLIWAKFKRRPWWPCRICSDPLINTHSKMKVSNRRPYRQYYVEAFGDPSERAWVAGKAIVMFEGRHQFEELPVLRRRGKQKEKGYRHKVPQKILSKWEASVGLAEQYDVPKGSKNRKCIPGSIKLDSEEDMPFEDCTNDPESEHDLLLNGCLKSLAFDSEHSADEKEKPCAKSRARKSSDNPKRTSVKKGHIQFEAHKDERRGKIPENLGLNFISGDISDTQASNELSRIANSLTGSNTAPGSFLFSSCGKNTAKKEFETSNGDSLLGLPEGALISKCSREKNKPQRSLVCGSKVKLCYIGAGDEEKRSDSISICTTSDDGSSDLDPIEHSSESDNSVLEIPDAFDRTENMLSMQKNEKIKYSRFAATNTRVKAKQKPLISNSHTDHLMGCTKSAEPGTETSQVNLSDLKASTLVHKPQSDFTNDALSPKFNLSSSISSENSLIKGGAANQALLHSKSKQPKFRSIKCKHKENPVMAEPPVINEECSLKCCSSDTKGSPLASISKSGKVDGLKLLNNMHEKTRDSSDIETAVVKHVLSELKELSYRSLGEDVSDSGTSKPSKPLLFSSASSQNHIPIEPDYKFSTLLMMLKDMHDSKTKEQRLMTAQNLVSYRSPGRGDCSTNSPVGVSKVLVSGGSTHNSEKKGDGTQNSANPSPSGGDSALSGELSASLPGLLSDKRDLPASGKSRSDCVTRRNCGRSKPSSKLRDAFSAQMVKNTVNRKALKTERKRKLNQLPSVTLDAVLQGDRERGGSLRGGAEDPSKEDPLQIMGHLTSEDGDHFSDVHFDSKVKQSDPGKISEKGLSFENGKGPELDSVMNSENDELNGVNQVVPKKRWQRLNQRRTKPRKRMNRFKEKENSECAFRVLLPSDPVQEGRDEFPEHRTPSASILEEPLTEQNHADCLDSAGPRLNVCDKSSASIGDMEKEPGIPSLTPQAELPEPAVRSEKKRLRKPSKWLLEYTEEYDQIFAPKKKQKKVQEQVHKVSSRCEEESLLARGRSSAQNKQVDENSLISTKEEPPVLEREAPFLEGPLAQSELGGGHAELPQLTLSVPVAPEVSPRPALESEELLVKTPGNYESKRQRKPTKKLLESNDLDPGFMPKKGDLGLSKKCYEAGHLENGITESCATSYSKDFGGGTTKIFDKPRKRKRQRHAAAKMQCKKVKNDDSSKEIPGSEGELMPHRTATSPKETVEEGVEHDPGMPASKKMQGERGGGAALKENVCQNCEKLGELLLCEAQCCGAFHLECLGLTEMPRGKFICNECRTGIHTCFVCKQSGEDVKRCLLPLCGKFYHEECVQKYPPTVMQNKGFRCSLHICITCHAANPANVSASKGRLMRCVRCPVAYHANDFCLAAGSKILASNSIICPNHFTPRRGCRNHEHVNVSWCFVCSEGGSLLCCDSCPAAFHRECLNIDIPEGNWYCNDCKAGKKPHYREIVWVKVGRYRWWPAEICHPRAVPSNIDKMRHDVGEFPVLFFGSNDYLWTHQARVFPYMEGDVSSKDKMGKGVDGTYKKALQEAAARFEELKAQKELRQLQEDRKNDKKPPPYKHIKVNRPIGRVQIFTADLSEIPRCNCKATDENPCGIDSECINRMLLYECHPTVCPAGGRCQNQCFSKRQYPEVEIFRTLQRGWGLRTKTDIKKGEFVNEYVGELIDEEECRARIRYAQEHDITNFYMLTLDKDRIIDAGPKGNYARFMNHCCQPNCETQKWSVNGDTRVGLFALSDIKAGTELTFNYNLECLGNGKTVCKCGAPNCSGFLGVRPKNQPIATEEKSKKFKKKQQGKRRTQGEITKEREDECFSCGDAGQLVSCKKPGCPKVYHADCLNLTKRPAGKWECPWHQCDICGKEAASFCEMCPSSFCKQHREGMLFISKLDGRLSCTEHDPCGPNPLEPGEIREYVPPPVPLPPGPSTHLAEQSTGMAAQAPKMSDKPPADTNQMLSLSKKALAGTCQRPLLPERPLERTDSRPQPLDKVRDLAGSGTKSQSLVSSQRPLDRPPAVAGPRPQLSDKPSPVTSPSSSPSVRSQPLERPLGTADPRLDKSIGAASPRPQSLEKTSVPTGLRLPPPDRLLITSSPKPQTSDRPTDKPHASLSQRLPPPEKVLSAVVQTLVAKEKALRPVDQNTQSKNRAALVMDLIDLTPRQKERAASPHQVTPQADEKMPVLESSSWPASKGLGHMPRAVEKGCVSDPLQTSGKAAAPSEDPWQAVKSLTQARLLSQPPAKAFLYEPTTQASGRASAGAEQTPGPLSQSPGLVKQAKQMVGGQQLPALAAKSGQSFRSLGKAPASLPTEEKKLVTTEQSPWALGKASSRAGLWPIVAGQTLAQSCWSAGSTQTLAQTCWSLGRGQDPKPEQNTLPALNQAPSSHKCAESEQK
UniProt O60524: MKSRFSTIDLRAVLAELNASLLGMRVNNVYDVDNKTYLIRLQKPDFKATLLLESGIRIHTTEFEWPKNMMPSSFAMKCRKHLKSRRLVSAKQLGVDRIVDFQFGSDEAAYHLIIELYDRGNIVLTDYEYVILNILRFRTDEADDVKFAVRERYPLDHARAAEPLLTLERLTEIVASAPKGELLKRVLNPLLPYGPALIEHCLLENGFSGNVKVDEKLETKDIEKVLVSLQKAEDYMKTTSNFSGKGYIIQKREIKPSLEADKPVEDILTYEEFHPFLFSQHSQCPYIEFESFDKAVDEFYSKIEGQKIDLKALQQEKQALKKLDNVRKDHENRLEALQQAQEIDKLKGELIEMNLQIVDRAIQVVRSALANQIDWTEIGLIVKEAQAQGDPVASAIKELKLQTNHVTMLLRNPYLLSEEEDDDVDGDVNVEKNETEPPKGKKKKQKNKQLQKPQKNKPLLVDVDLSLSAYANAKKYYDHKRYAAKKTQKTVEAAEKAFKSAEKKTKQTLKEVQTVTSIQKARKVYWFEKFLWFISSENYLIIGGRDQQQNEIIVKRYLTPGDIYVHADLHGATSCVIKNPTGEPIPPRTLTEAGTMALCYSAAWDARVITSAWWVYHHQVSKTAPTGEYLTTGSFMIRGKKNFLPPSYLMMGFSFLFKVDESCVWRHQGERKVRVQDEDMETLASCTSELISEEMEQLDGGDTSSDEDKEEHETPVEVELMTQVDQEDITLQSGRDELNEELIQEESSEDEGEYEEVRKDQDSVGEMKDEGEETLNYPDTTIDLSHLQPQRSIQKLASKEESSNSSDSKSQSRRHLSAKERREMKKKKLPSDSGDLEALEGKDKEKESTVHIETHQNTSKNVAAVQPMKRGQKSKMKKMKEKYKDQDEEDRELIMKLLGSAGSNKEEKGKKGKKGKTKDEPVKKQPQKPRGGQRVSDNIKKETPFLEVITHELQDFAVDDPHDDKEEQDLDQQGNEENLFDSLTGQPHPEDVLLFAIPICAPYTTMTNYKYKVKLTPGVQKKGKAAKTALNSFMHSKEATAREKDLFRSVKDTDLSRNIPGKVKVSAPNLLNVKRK

compound: Cc1nc(Nc2ncc(C(=O)Nc3c(C)cccc3Cl)s2)cc(N2CCN(CCO)CC2)n1 [dasatinib]; assay: log2 fold change, soluble protein after heating vs DMSO (PISA); higher = thermal stabilisation; K562 cells, 10 uM, 30 min; active = over 0.2 and 3.5 SD of the protein, either way, in both replicates (recomputed)
How it was run: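 K562 cells (2×10^6 cells/mL) were treated with 10 μM compound for 30 min, and aliquots were heated for 3 min over 48°C-58°C. Pooled aliquots were extracted in PBS with 0.5% NP-40 at 4°C, and the supernatant after 21,000xg for 90 min was measured by TMTpro 16plex LC-MS/MS with channel sums equalised. Reported thermal stability, relative to control samples and from duplicates, is a log2 fold change.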

log2 fold change, inactive:
NSD3 (UniProt Q9BZ95) 0.255
NFATC4 isoform 2 (UniProt Q14934) 0.187
NFAT5 isoform 5 (UniProt O94916) 0.083
NGLY1 (UniProt Q96IV0) -0.064
NSF (UniProt P46459) -0.114
NLN (UniProt Q9BYT8) -0.018
NHP2 (UniProt Q9NX24) 0.193
NIPSNAP3B (UniProt Q9BS92) -0.044
NELFB isoform 2 (UniProt Q8WX92) -0.189
NFXL1 (UniProt Q6ZNB6) 0.002
NSMAF (UniProt Q92636) 0.005
NNT (UniProt Q13423) -0.02
NPL (UniProt Q9BXD5) -0.012
NOP56 (UniProt O00567) 0.204
NGRN (UniProt Q9NPE2) -0.15
NNMT (UniProt P40261) 0.037
NFATC3 (UniProt Q12968) -0.042
NELFCD (UniProt Q8IXH7) -0.158
NPLOC4 isoform 2 (UniProt Q8TAT6) -0.021
NSD1 (UniProt Q96L73) 0.185
NRAS (UniProt P01111) 0.03
NEK7 (UniProt Q8TDX7) -0.102
NEMF (UniProt O60524) 0.072

Reprinted at random: two entries already listed, in no set order.
log2 fold change, inactive:
NEMF (UniProt O60524) 0.072
NELFB isoform 2 (UniProt Q8WX92) -0.189
